Results on 2 molecules are retold here after PMC6048318.

In experiment [1] the target is T1, HPL-2, the C. elegans heterochromatin protein 1 (HP1) homolog (C. elegans (endogenous in worm extract)) (UniProt G5EDE2).
T1 sequence: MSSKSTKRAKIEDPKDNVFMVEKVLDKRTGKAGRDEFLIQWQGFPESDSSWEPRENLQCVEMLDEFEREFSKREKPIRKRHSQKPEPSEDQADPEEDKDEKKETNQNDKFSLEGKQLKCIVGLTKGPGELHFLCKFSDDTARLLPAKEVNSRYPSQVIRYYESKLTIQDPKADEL
In words: co-IP; anti-HPL-2 antibody on protein A magnetic beads, 100 ug worm extract, 4°C 2 h; extract treated with RNase T1 and V1; blot with anti-TDP-1.

Experiment [2] concerns the target T2, TDP-1, the Caenorhabditis elegans ortholog of mammalian TDP-43 (C. elegans (endogenous in worm extract)) (UniProt D0VWM8).
T2 sequence: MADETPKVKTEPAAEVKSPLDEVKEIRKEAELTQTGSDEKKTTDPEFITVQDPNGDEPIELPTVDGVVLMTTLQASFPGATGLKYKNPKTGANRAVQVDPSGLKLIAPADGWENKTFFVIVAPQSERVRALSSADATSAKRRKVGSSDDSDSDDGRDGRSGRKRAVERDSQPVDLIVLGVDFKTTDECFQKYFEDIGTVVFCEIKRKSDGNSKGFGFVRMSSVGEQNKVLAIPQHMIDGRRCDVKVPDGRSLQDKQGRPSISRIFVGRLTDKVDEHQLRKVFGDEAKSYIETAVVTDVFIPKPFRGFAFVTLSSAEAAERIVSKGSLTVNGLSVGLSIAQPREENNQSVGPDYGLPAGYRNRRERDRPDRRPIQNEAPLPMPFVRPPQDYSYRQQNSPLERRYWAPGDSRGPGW
In words: co-IP; anti-TDP-1 antibody on protein A magnetic beads, 100 ug worm extract, 4°C 2 h; extract with or without RNase T1 and V1; wild-type and eri-1 mutant backgrounds; blot with anti-HPL-2.

No constants are given. Whether binding was seen depends on the method and setting. In cells and extracts the contact can be indirect. Some results given as binding are weak or reduced against the parent protein; the word gives no strength.

B1: TDP-1, the Caenorhabditis elegans ortholog of mammalian TDP-43 (protein, UniProt D0VWM8 1-414)
chain: T2 sequence
Regarding B1, the binding entry in experiment [1] is on record as “binds”.

B2: HPL-2, the C. elegans heterochromatin protein 1 (HP1) homolog (protein, UniProt G5EDE2 1-175)
chain: T1 sequence
As to B2, in experiment [2], the binding result is “binds”.
